The values below come from PMC5328659 (Journal of clinical toxicology, 2016).

This series is described as follows: DZP quantification in plasma and brain by LC/MS. It is filed as in vivo, mice. As to conditions: for concentration at 5 min / concentration at 1 h: Swiss Webster, mouse, intraperitoneal, 10 mpk.

SMILES strings stand for the structures.

In the case of `CN1C(=O)CN=C(c2ccccc2)c2cc(Cl)ccc21` [DZP, diazepam], for the setting “DZP 10 mg/kg i.p.”, the “Decrease of tissue and plasma levels of DZP at 1 h after dosing” value is reported as “at least 3 fold”. The concentration at 5 min is 15000 ± 3000 nM (brain) and 3000 ± 800 nM (plasma). Besides, the concentration at 1 h (brain) amounted to 1000 ± 100 nM and the concentration at 1 h (plasma) stood at 400 ± 50 nM.
